# PubChem BioAssay AID445 (National Center for Advancing Translational Sciences (NCATS), 2006)
# The list shows a part of the results. Further columns of the screen follow, without active or inactive calls. Compounds called inactive in the main read-out are mostly missing here. Words in brackets tell the shape of the fitted curve; partial curves, single points and poor fits give uncertain potencies.
# Test: IkB Signaling
# Conditions: ABC-DLBCL IkBa-CBG/CBR dual luciferase ratio (green luciferase fused to IkBa over red control in OCI-Ly3 lymphoma cells), 4 h
# Procedure, shortened: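 Curves were fitted separately to fusion (green), unfused (red) and ratio luminescence, then classed by r2, magnitude and activity. Cells: OCI-Ly3, 4 h compound plus doxycycline at 37C; 10 uM MG-132 defined full response.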
# [1] = measured here: control luc red channel unless noted
compound,measurement,setting,value
O=C(CSc1nc(-c2ccc(F)cc2)cc(C(F)(F)F)n1)NCc1ccccc1,AC50,[1],"0.316 µM [rising, full curve]"
Cc1cc(C(=O)CSc2nnc(-c3ccco3)o2)c(C)n1-c1ccc2c(c1)OCCO2,AC50,[1],"12.6 µM [falling, partial curve]"
Cc1cccc(C(=O)Nc2c3c(nn2-c2ccc(Cl)cc2)CS(=O)(=O)C3)c1,AC50,[1],"31.6 µM [falling, partial curve]"
CCOC(=O)c1ccc2c(c1)N(Cc1cccc(OC)c1)C(=O)c1ccccc1S2(=O)=O,AC50,[1],"3.98 µM [rising, single point]"
CCOC(=O)c1c(-c2ccccc2)oc2ccc(NS(=O)(=O)c3ccc(OC)cc3)cc12,AC50,[1],"31.6 µM [falling, single point]"
CC(C)(C)OC(=O)N1CCC(c2c(C(=O)NC3CCN(Cc4ccccc4)CC3)cnn2-c2cccc(F)c2)CC1,AC50,[1],"31.6 µM [falling, single point]"
COc1ccc(S(=O)(=O)Nc2cccc(-c3ccc(N4CCOCC4)nn3)c2)cc1F,AC50,[1],"10 µM [falling, partial curve]"
O=C(Cn1nc(-c2ccccc2)ccc1=O)NCc1ccc(F)cc1Cl,AC50,[1],"39.8 µM [falling, single point]"
COc1ccccc1NC(=O)N(Cc1ccco1)Cc1cc2cc(C)cc(C)c2[nH]c1=O,AC50,[1],"15.8 µM [falling, partial curve]"
CC(=O)Nc1ccc(NC(=O)CCCc2nc(-c3ccc(C(C)(C)C)cc3)no2)cc1,AC50,[1],"10 µM [falling, partial curve]"
CCOc1cc(C(=O)Nc2ccc3oc(-c4ccc(F)cc4Cl)nc3c2)cc(OCC)c1OCC,AC50,[1],"3.16 µM [falling, partial curve]"
COc1ccc(N(Cc2cccs2)C(=O)c2ccccc2C)cc1,AC50,[1],"39.8 µM [falling, single point]"
Cc1ccc(NC(=O)c2cc(C)nn2-c2ccccc2)cc1,AC50,[1],"3.16 µM [falling, full curve]"
O=C(CCCCn1c(=O)c2ccccc2n(Cc2ccc(Cl)cc2)c1=O)NCc1ccccc1Cl,AC50,[1],"12.6 µM [falling, partial curve]"
Cc1cc(OC(C)C(=O)N(Cc2ccco2)Cc2ccccc2F)cc(C)c1Cl (configuration not stated),AC50,[1],"12.6 µM [falling, partial curve]"
Cc1ccc(CCNC(=O)C2CCN(c3nnc(C)c4c(C)n(-c5ccccc5)nc34)CC2)cc1,AC50,[1],"0.794 µM [falling, partial curve]"
COc1ccc(CN(C2CCCC2)S(=O)(=O)c2ccc(-n3cnnn3)cc2)cc1OC,AC50,[1],"39.8 µM [falling, single point]"
CCOc1cccc2sc(N(Cc3cccnc3)C(=O)C3CCCCC3)nc12,AC50,[1],"2.51 µM [falling, full curve]"
Cc1ccc(NC(=O)CSCc2cnn(-c3ccccc3)c2-n2cccc2)c(C)c1,AC50,[1],"25.1 µM [falling, single point]"
Cc1ccc(NC(=O)CSc2nc3ccccc3c3nc(CCn4cncc4C)nn23)cc1F,AC50,[1],"31.6 µM [falling, partial curve]"
Cc1ccc(C)c(N2CCN(CCCNC(=O)C3COc4ccccc4C3)CC2)c1 (configuration not stated),AC50,[1],"25.1 µM [falling, single point]"
CN1CCN(C(c2ccccc2Cl)c2sc3nc(-c4ccco4)nn3c2O)CC1 (configuration not stated),AC50,[1],"3.98 µM [rising, full curve, poor fit]"
CCCS(=O)(=O)c1ncc(Cl)c(C(=O)N2CCN(c3ccc(OC)cc3)CC2)n1,AC50,[1],"2.51 µM [falling, full curve]"
Cc1ccc2ncc(C(=O)NCc3ccccc3Cl)c(=O)n2c1,AC50,[1],"3.16 µM [rising, full curve]"
CCN(Cc1ccccc1)Cc1c(O)ccc2c(=O)c(-c3ccccc3OC)c(C(F)(F)F)oc12,AC50,[1],"25.1 µM [falling, single point]"
Cc1cccc(OCCSc2nc3ccccc3n2CC(=O)N2CCCCC2)c1C,AC50,[1],"25.1 µM [falling, single point]"
CCOC(=O)c1ccc(N2CCN(c3cc(Cl)ccc3C)CC2)c(NC(=O)Nc2cccc(OC)c2)c1,AC50,[1],"7.94 µM [falling, partial curve]"
COc1ccccc1NC(=O)c1oc2ccc(C)cc2c1C,AC50,[1],"12.6 µM [falling, partial curve]"
Cc1ccc(Cn2c(CNS(=O)(=O)c3c(C)cc(C)cc3C)nc3cccnc32)cc1,AC50,[1],"0.1 µM [rising, partial curve, poor fit]"
CC(=O)Nc1nonc1-c1nnc(SCC(=O)Nc2ccc(F)cc2F)n1-c1ccccc1,AC50,[1],"12.6 µM [falling, partial curve]"
Cc1cccc(S(=O)(=O)Nc2cccc(-c3cn4ccsc4n3)c2)c1,AC50,[1],"15.8 µM [falling, partial curve]"
CCc1ccc(-n2c(SC(CC)C(=O)N(CC)CC)nc3n[nH]c(C)c3c2=N)cc1 (configuration not stated),AC50,[1],"12.6 µM [falling, partial curve]"
CCOCCCNC(=O)C1CCCN(Cc2nc(-c3ccc(CC)cc3)oc2C)C1 (configuration not stated),AC50,[1],"20 µM [falling, partial curve, poor fit]"
CCn1ccc2cc(S(=O)(=O)N3CCCN(C(=O)Nc4ccccc4OC)CC3)ccc21,AC50,[1],"3.16 µM [falling, partial curve]"
CCc1ccc(OCC(=O)N(Cc2cccs2)c2ccc(Cl)cc2)cc1,AC50,[1],"31.6 µM [falling, partial curve]"
Cc1cc2oc(=O)c(CC(=O)NCCc3ccccc3)c(C)c2c2occ(C(C)(C)C)c12,AC50,[1],"15.8 µM [falling, partial curve]"
CCCOC(=O)c1c(C)oc2c1cc(NS(=O)(=O)c1ccc(OCC)cc1)c1ccccc12,AC50,measured here: IkB-luc green channel,"2 µM [rising, partial curve]"
same,AC50,measured here: control luc red channel,"1.58 µM [rising, partial curve]"
COc1ccc(-c2cn3c(n2)sc2cc(C(=O)NC4CCCc5ccccc54)ccc23)cc1 (configuration not stated),AC50,[1],"12.6 µM [falling, partial curve]"
Cc1[nH]c2ccccc2c1-c1nc2ccccc2[nH]1,AC50,[1],"0.126 µM [falling, full curve]"
O=C(Nc1c(F)cc(F)cc1Br)c1cc(-c2ccc(O)cc2)on1,AC50,[1],"12.6 µM [falling, partial curve]"
CCN(C(=O)CCc1nc(-c2ccc(C)cc2)no1)c1cc(C)ccc1C,AC50,[1],"39.8 µM [falling, single point]"
O=C1c2ccccc2CC[C@H]1CNCCc1ccc(O)cc1,AC50,[1],"39.8 µM [rising, single point] [measured here: IkB-luc green channel]"
CCc1ccc(NC(=O)CC2C(=O)N(c3cccc(OC)c3)C(=O)N2Cc2ccco2)cc1 (configuration not stated),AC50,[1],"25.1 µM [falling, partial curve]"
Cc1ccc(C(Nc2ccccn2)c2ccc3cccnc3c2O)cc1 (configuration not stated),AC50,[1],"3.98 µM [falling, full curve]"
C[C@@]12CCC(=O)C=C1CC[C@H]1[C@H]3CC[C@](O)(C(=O)CO)[C@]3(C)CC[C@@H]12,AC50,[1],"5.01 µM [rising, full curve] [measured here: IkB-luc green channel]"
COc1cc(Cl)c(C)cc1NC(=O)CCc1c(C)nc2cc(-c3cccc(F)c3)nn2c1C,AC50,[1],"6.31 µM [falling, partial curve]"
CCc1c(C)sc2c1CCN(C(=O)Nc1ccccc1C(F)(F)F)C2c1ccccc1 (configuration not stated),AC50,[1],"12.6 µM [falling, partial curve]"
O=C(CCn1cnc2onc(-c3ccc(F)cc3)c2c1=O)N1CCN(c2ccc(F)cc2)CC1,AC50,[1],"15.8 µM [falling, partial curve]"
O=C(c1ccc(-c2ccccc2)cc1)N1CCN(Cc2ccccn2)CC1,AC50,[1],"25.1 µM [falling, partial curve]"
CCc1cccc(CC)c1NC(=O)Cn1nnc2sc(-c3ccccc3)cc2c1=O,AC50,[1],"25.1 µM [falling, single point]"
Cc1ccc(-c2nc3ccc(Cl)cn3c2Nc2ccc3c(c2)OCCO3)o1,AC50,[1],"0.794 µM [falling, full curve, poor fit]"
CCN(CC)c1ccc(-c2nn3c(-c4n[nH]c5c4CCC5)nnc3s2)cc1,AC50,[1],"39.8 µM [falling, single point]"
O=C(CSc1nnc(Cc2cccs2)n1C1CCCCC1)N1CCN(C(=O)c2ccco2)CC1,AC50,[1],"10 µM [falling, partial curve]"
Oc1cc2c(cc1O)CN(C(=S)NCCc1ccc(Cl)cc1)CCC2,AC50,[1],"39.8 µM [falling, partial curve]"
CCCCCn1c(=O)[nH]c2cc(C(=O)N3CCN(c4ccccc4)CC3)ccc2c1=O,AC50,[1],"5.01 µM [falling, full curve, poor fit]"
Cc1cc(N2CCN(C)CC2)nc2ccc(NC(=O)Nc3ccccc3Cl)cc12,AC50,[1],"39.8 µM [falling, single point]"
CCN(c1ncnc2c1c(-c1ccccc1)cn2-c1ccccc1)C1CCCCC1,AC50,[1],"7.94 µM [falling, partial curve]"
Cc1cccc(N2CCN(C(=O)c3cn(C)c(=O)c4c3c3ccccc3n4C)CC2)c1C,AC50,[1],"31.6 µM [falling, partial curve]"
CCNc1c(NC(=O)c2ccccc2OCC)c(=O)oc2ccccc12,AC50,[1],"12.6 µM [falling, partial curve]"
CCOC(=O)C1=C(CNCc2ccccc2)NC(=O)NC1c1ccc(C)cc1 (configuration not stated),AC50,[1],"15.8 µM [falling, partial curve]"
Cc1ccc(N2C(=O)[C@@H]3CSC(c4ccc(C(F)(F)F)cc4)N3C2=O)cc1 (some centres not stated),AC50,[1],"1.26 µM [rising, full curve]"

# A run of entries of the results above, as a working copy:
compound,measurement,setting,value
CCn1ccc2cc(S(=O)(=O)N3CCCN(C(=O)Nc4ccccc4OC)CC3)ccc21,AC50,[1],"3.16 µM [falling, partial curve]"
CCc1ccc(OCC(=O)N(Cc2cccs2)c2ccc(Cl)cc2)cc1,AC50,[1],"31.6 µM [falling, partial curve]"
Cc1cc2oc(=O)c(CC(=O)NCCc3ccccc3)c(C)c2c2occ(C(C)(C)C)c12,AC50,[1],"15.8 µM [falling, partial curve]"
CCCOC(=O)c1c(C)oc2c1cc(NS(=O)(=O)c1ccc(OCC)cc1)c1ccccc12,AC50,measured here: IkB-luc green channel,"2 µM [rising, partial curve]"
